Drawing on paper PMC3380004, this text covers binding for 18 molecules.

By UniProt entry, the sequences of proteins in these tests, tags left out.
UniProt Q9EPN1: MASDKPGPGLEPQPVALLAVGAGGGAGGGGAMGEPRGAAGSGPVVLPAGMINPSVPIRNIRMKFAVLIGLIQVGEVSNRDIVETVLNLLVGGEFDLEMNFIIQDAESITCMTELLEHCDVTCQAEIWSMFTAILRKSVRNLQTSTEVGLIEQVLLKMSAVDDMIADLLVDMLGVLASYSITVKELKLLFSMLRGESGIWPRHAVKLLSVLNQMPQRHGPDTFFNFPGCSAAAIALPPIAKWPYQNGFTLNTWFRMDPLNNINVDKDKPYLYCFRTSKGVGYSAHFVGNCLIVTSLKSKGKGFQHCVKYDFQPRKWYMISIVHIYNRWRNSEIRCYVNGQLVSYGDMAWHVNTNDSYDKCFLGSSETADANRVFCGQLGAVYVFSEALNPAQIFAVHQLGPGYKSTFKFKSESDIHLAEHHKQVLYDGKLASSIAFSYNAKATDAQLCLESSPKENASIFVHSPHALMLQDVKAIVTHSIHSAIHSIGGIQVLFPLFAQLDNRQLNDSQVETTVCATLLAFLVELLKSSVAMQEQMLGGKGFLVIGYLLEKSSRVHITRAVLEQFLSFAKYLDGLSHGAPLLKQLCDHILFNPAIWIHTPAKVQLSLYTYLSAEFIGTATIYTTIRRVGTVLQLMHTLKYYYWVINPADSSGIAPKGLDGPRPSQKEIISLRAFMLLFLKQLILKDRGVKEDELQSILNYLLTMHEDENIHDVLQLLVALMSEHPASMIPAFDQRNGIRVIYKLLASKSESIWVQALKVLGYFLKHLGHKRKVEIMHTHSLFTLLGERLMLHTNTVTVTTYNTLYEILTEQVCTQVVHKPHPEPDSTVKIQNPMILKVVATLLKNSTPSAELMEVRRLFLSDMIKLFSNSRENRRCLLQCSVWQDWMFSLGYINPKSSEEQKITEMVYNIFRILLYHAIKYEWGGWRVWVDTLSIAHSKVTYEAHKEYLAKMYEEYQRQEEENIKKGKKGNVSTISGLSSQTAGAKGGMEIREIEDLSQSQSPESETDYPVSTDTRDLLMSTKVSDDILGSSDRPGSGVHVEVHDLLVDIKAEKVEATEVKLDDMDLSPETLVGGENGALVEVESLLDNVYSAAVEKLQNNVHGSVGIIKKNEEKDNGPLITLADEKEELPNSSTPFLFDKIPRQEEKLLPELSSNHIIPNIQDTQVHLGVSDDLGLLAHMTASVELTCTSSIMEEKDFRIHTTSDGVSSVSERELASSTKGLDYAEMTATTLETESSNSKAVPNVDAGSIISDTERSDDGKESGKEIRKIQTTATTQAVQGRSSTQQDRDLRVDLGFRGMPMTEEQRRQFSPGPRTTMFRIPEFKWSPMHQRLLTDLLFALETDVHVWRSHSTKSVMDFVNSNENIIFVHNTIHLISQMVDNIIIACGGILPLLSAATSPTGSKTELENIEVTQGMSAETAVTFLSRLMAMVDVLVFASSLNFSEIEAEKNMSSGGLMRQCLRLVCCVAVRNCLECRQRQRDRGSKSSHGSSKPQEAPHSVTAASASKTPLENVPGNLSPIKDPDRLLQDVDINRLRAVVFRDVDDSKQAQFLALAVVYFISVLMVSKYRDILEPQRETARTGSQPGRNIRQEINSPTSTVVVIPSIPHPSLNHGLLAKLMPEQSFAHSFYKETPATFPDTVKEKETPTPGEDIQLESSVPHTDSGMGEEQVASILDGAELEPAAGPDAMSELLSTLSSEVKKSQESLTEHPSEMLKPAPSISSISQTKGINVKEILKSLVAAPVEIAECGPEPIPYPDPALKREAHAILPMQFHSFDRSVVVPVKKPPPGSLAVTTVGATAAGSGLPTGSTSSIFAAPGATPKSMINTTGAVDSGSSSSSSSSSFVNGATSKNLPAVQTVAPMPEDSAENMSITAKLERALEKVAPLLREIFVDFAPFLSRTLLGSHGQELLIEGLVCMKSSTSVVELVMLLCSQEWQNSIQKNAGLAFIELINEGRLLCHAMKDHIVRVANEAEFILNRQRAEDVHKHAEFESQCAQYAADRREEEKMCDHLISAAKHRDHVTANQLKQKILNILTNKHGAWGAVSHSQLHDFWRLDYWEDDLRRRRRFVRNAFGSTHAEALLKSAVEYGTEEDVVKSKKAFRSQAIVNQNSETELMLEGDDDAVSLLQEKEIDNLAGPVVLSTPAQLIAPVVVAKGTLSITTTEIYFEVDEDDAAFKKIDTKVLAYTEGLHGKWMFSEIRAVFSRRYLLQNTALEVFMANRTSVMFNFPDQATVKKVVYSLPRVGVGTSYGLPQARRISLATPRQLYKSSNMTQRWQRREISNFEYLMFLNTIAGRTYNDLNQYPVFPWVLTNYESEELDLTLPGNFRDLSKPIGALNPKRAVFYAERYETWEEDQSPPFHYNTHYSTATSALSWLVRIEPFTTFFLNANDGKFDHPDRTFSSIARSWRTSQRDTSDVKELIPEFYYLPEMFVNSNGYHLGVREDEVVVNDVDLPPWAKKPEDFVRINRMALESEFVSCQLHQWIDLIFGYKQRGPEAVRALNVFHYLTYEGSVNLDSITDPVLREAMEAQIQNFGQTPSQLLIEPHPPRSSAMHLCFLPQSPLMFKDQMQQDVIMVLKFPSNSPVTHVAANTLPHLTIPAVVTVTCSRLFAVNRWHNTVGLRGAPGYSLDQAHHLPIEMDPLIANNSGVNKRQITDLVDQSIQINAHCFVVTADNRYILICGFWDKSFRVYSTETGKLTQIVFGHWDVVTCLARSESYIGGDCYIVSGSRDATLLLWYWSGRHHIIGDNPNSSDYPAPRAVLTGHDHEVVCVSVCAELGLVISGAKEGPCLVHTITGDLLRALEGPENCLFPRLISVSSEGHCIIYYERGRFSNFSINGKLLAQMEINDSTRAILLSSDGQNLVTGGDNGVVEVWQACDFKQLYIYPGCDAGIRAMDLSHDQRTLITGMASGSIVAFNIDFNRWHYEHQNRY
UniProt Q64332: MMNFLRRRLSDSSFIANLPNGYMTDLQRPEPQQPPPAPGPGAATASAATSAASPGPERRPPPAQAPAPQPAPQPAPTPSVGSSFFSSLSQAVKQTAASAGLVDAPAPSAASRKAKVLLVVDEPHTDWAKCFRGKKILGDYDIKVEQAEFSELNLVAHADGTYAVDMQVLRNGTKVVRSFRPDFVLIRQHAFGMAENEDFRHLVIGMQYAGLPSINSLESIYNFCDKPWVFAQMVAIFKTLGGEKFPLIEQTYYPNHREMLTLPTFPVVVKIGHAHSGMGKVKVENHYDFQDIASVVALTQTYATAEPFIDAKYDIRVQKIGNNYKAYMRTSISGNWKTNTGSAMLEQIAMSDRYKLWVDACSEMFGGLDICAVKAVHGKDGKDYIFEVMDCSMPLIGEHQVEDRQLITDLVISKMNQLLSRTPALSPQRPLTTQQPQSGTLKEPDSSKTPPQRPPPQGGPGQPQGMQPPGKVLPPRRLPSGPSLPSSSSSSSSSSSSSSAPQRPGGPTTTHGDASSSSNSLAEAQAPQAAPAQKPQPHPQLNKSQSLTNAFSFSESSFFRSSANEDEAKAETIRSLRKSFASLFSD
UniProt Q9D6F9: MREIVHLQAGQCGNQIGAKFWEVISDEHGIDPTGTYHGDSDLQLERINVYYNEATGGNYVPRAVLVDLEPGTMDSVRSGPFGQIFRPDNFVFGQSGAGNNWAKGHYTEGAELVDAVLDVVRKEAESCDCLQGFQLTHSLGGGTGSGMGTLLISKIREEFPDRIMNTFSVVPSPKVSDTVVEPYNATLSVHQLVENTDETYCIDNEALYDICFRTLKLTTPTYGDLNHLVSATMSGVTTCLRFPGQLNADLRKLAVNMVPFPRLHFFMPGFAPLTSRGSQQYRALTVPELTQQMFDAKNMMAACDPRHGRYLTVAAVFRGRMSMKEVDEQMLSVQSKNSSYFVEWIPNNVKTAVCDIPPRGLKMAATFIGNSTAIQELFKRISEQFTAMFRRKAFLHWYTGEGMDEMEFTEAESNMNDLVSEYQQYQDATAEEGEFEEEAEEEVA
UniProt P68368: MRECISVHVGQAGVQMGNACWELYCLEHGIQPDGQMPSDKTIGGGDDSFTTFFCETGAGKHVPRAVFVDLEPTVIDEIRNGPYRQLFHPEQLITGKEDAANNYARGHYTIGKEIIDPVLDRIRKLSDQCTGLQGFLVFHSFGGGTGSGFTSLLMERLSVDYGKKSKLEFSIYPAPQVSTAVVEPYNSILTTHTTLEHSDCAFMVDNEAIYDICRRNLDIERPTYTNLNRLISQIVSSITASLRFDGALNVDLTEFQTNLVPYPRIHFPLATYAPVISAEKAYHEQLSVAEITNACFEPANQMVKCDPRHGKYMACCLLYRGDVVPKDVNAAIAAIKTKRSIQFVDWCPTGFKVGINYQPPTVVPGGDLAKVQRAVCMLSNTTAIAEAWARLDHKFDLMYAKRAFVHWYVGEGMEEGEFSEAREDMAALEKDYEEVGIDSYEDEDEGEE
UniProt O88487: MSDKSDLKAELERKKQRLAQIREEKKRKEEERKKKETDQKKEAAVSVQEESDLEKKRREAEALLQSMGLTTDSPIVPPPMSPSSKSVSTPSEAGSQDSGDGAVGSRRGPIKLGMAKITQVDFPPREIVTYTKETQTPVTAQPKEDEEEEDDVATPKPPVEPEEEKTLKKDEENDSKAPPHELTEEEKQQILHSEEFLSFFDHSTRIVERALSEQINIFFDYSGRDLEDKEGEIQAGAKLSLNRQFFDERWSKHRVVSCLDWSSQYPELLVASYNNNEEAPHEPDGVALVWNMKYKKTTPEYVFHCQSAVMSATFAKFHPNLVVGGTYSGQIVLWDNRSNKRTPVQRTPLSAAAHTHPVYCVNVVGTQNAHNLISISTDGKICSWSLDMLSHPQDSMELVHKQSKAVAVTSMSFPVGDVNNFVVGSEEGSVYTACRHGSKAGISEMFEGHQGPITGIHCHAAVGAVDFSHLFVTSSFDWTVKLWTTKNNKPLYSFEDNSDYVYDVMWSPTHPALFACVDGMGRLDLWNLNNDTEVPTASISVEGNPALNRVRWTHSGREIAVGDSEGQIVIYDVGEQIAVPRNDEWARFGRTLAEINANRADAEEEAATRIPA
UniProt P31324: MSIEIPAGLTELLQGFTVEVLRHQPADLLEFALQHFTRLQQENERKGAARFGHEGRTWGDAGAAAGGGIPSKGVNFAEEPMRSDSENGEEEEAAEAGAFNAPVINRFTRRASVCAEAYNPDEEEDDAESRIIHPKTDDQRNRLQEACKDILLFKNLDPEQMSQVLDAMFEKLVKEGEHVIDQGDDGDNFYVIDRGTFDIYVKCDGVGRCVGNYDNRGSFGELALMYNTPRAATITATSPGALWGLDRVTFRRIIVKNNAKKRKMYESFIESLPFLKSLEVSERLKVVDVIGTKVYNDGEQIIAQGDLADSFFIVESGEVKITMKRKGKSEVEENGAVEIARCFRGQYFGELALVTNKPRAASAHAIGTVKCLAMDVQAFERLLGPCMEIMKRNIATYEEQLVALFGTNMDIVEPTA
UniProt P60879: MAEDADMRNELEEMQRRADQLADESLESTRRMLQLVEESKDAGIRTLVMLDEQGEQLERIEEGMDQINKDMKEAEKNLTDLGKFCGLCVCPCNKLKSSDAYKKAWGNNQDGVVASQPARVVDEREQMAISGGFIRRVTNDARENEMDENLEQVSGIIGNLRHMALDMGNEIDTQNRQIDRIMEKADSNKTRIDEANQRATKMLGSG
UniProt P43006: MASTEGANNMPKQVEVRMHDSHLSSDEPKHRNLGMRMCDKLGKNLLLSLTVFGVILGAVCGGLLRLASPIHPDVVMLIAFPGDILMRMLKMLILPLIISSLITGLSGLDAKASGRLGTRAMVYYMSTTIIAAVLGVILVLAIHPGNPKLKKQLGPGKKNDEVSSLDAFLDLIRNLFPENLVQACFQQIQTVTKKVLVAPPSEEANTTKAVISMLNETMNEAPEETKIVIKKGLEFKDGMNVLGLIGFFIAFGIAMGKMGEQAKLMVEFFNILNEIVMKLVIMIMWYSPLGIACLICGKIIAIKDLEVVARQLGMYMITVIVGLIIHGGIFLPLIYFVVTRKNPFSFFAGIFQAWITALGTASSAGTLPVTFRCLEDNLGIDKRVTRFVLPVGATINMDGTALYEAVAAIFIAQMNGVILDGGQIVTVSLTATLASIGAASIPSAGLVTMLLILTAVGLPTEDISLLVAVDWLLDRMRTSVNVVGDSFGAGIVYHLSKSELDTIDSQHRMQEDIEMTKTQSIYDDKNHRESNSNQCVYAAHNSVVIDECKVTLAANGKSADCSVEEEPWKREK

Results are given in words; binding and its absence hold for the method and conditions named. Binding seen in cells or lysates may run through a third protein. A yes stands for co-enrichment or nearness to the bait. Other partners may have been found. Tags and fused reporters may be left off the sequences shown.

The assay deals with Neurobeachin (mouse (endogenous in mouse brain)) (UniProt Q9EPN1). In words: affinity purification with mass spectrometry; IP with α-Nbea antibody from the P2+microsomes fraction of P84 mouse brain solubilised with 1% n-Dodecyl β-D-maltoside (DDM), protein A/G agarose, 4°C; controls: empty beads, E18 KO IP; LTQ-Orbitrap.

As to “Synapsin-2; Synapsin II (from UniProt Q64332 1-586)”, the binding entry is reported as “binds”. With “Tubulin beta-4A chain (from UniProt Q9D6F9 1-444)” the entry was “binds”. To “CAP-Gly domain-containing linker protein 2 (from UniProt Q9Z0H8 1-1047)” belongs “binds”. To “Tubulin, alpha-4A chain (from UniProt P68368 1-448)” belongs “binds”.

On to “Cytoplasmic dynein 1 intermediate chain 2 (from UniProt O88487 1-612)”, for which the binding entry is “binds”. Regarding “cAMP-dependent protein kinase type II-beta regulatory subunit (from UniProt P31324 1-416)”, the binding entry is recorded as “binds”. On to “Synaptosomal-associated protein 25 (from UniProt P60879 1-206)”, for which the binding result is “binds”. With “Excitatory amino acid transporter 2 (from UniProt P43006 1-572)” the entry was “binds”.

As for “Cytoplasmic dynein 1 light intermediate chain 2 (from UniProt Q6PDL0 1-492)”, the binding result was “binds”.

B1: Heat shock 70 kDa protein 12A (protein, UniProt Q8K0U4 1-675)
chain: MADKEAGGGDAGPRETAPTSTYSSPARSLGDTGITPLSPSHILNDADPVSEQQTFLVVVAIDFGTTSSGYAYSFTKEPECIHVMRRWEGGDPGVSNQKTPTTILLTPERKFHSFGYAARDFYHDLDPSEAKQWLYLEKFKMKLHTTGDLTMDTDLTAANGKKVKALEIFAYALQYFKEQALKELSDQAGSDFENSDVRWVITVPAIWKQPAKQFMREAAYQAGLASPENSEQLIIALEPEAASIYCRKLRLHQMIELSSKAVVNGYSASDTVGAGFAQAKEHVRRNRQSRTFLVENVIGEIWSELEEGDKYVVVDSGGGTVDLTVHQIRLPEGHLKELYKATGGPYGSLGVDYEFEKLLCKIFGEDFIEQFKIKRPAAWVDLMIAFESRKRAAAPDRTNPLNITLPFSFIDYYKKFRGHSVEHALRKSNVDFVKWSSQGMLRMSPDAMNALFKPTIDSIIEHLRDLFQKPEVSTVKFLFLVGGFAEAPLLQQAVQTAFGDKCRIIIPQDVGLTILKGAVLFGLDPAVIKVRRSPLTYGVGVLNRYVEGKHPPEKLLVKDGTRWCTDVFDKFISADQSVALGELVKRSYTPAKPSQLVIIINIYSSEHDNVSFITDPGVKKCGTLRLDLTGSGGTAVPARREIQTIMQFGDTEIKATAVDITTSKSVKVGIDFLNY
As to B1, the binding result was “binds”.

B2: Striatin (protein, UniProt O55106 1-780)
chain: MDEQAGPGVFFSNNHPGAGGAKGLGPLAEAAAAGDGAAAAGAARAQYSLPGILHFLQHEWARFEVERAQWEVERAELQAQIAFLQGERKGQENLKKDLVRRIKMLEYALKQERAKYHKLKYGTELNQGDMKPPSYDSDEGNETEVQPQQNSQLMWKQGRQLLRQYLQEVGYTDTILDVKSKRVRALLGFSSDVTDREDDKNQDSVINGTEAEVKETAMIGKSELTDSASVLDNFKFLESAAADVSDEDEDEDTDGRAKSVIDTSTIVRKKALPDTSEDRDTKEALKEFDFLVTSEEGDNESRSAGDGTDWEKEDQCLTPEAWNVDQGVISKLKEQYKKERKGKKGVKRPNRSKLQDMLANLRDVDELPSLQPSVGSPSRPSSSRLPEQELSRADEVEALTFPPSSGKSFIMGADEALESELGLGELAGLTVANEADSLAYDIANNKDALRKTWNPKFTLRSHFDGIRALAFHPIEPVLITASEDHTLKMWNLQKTAPAKKSTSLDVEPIYTFRAHKGPVLCVVMSSNGEQCYSGGTDGRIQSWSTTNPNVDPYDAYDPSVLRGPLLGHTDAVWGLAYSAAHQRLLSCSADGTLRLWNTTEVAPALSVFNDNQELGIPASVDLVSSDPSHMVASFSKGYTSIFNMETQQRVLTLESNVDSTSSSSCQINRVISHPTLPISITAHEDRHIKFYDNNTGKLIHSMVAHLEAVTSLAVDPNGLYLMSGSHDCSIRLWNLESKTCIQEFTAHRKKFEESIHDVAFHPSKCYIASAGADALAKVFV
As for B2, the binding entry was “binds”.

B3: Synaptogyrin-1 (protein, UniProt O55100 1-234)
chain: MEGGAYGAGKAGGAFDPYTLVRQPHTILRVVSWVFSIVVFGSIVNEGYLNNPEEEEEFCIYNRNPNACSYGVTVGVLAFLTCLLYLALDVYFPQISSVKDRKKAVLSDIGVSAFWAFFWFVGFCFLANQWQVSKPKDNPLNEGTDAARAAIAFSFFSIFTWAGQAVLAFQRYQIGADSALFSQDYMDPSQDSSMPYAPYVEPSAGSDPAGMGGTYQHPANAFDAEPQGYQSQGY
As to B3, the binding result is on record as “binds”.

B4: Potassium voltage-gated channel subfamily D member 2 (protein, UniProt Q9Z0V2 1-630)
chain: MAAGVAAWLPFARAAAIGWMPVASGPMPAPPRQERKRTQDALIVLNVSGTRFQTWQDTLERYPDTLLGSSERDFFYHPETQQYFFDRDPDIFRHILNFYRTGKLHYPRHECISAYDEELAFFGLIPEIIGDCCYEEYKDRRRENAERLQDDADTDNTGESALPTMTARQRVWRAFENPHTSTMALVFYYVTGFFIAVSVIANVVETVPCGSSPGHIKELPCGERYAVAFFCLDTACVMIFTVEYLLRLAAAPSRYRFVRSVMSIIDVVAILPYYIGLVMTDNEDVSGAFVTLRVFRVFRIFKFSRHSQGLRILGYTLKSCASELGFLLFSLTMAIIIFATVMFYAEKGSSASKFTSIPAAFWYTIVTMTTLGYGDMVPKTIAGKIFGSICSLSGVLVIALPVPVIVSNFSRIYHQNQRADKRRAQKKARLARIRAAKSGSANAYMQSKRNGLLSNQLQSSEDEPAFISKSGSSFETQHHHLLHCLEKTTNHEFVDEQVFEESCMEVATVNRPSSHSPSLSSQQGVTSTCCSRRHKKTFRIPNANVSGSHRGSVQELSTIQIRCVERTPLSNSRSSLNAKMEECVKLNCEQPYVTTAIISIPTPPVTTPEGDDRPESPEYSGGNIVRVSAL
Regarding B4, the binding result is recorded as “binds”.

B5: Mitochondrial glutamate carrier 1 (protein, UniProt Q9D6M3 1-323)
chain: MADKQISLPAKLINGGIAGLIGVTCVFPIDLAKTRLQNQQNGQRMYASMSDCLIKTIRSEGYFGMYRGAAVNLTLVTPEKAIKLAANDFFRHQLSKDGQKLTLPKEMLAGCGAGTCQVIVTTPMEMLKIQLQDAGRIAAQRKILAAQAQLSAQGGAQPSVEAPAPPRPTATQLTRDLLRNHGIAGLYKGLGATLLRDVPFSIVYFPLFANLNQLGRPSSEEKSPFYVSFLAGCVAGSAAAVAVNPCDVVKTRLQSLERGVNEDTYSGFLDCARKIWRHEGPSAFLKGAYCRALVIAPLFGIAQVVYFLGIAESLLGLLQEPQA
Consider B5, for which the binding result is given as “binds”.

B6: Sjogren syndrome/scleroderma autoantigen 1 homolog (protein, UniProt P56873 1-199)
chain: MALNGADVDDFTWEPPTEAETKVLQARRERQDRISRLMGDYLLRGYRMLGDTCADCGTILLQDKQRKIYCVACQELDSDVDKDNPALNAQAALSQAREHQLASSTEPASSSRPPSQPPVPRPEHCEGAAAGLKAAQAPPLPAAPPNTDAVASTQTALLQKLTWASVELGSSTSLETSIQLCGLIRACAEALGSLKQLDH
Turning to B6, the binding entry is listed as “binds”.

B7: 6-Phosphofructokinase type C (protein, UniProt Q9WUA3 1-784)
chain: MSDLDSSSSSAYPKYLEHLSGDGKAIGVLTSGGDAQGMNAAVRAVVRMGIYTGAKVYFIYEGYQGLVDGGSNIVEAKWDCVSSILQVGGTIIGSARCKAFRSREGRLKAACNLARLGITNLCVIGGDGSLTGANLFRKEWSGLLEELARNGDIDNDTVQKYSYLNVVGMVGSIDNDFCGTDMTIGTDSALHRIIEVVDAIMTTAQSHQRTFVLEVMGRHCGYLALVSALTCGADWVFLPESPPEEDWEENMCLKLSENRARKKRLNIIIVSEGAIDMQNKPITSEKIKELVVKNLGFDTRVTILGHVQRGGTPSAFDRILASRMGVEAVIALLEATPETPACVVSLRGNQAVRLPLMECVQMTQDVQKAMDERRFKEAVKLRGRRFEGNLNTYKRLAIKLPDEKIVKSNCNVAVINVGAPAAGMNAAVRSAVRVGIADGHKMFAIYDGFEGFANGQIKEIGWADVGGWTGQGGSILGTKRTLPGKYLEKIAEQMHSHSINALLIIGGFEAYLGLLELAAAREKHEAFCVPMVMVPATVSNNVPGSDFSIGADTALNTITDTCDRIKQSASGTKRRVFIIETMGGYCGYLANMGALAAGADAAYIFEEPFDIGDLQSNVVHLTEKMKTSIQRGLVLRNESCSVNYTTDFIYQLYSEEGKGVFDCRKNVLGHMQQGGAPSPFDRNFGTKISAKAMEWISAKLKGSQGTGKKFVSDDSICVLGICKRDLLFQPVAELKKVTDFEHRIPKEQWWLKLRPIMKILAKYEASYDMSDSGKLESLQHHEEL
As to B7, the binding result is reported as “binds”.

B8: ERC protein 2 (protein, UniProt Q6PH08 1-957)
chain: MYGSARTISNLEGSPSRSPRLPRSPRLGHRRTSSGGGGGTGKTLSMENIQSLNAAYATSGPMYLSDHEGVASTTYPKGTMTLGRATNRAVYGGRVTAMGSSPNIASAGLSHTDVLSYTDQHGGLSGSSHHHHHQVPSMLRQVRDSTMLDLQAQLKELQRENDLLRKELDIKDSKLGSSMNSIKTFWSPELKKERVLRKEEAARMSVLKEQMRVSHEENQHLQLTIQALQDELRTQRDLNHLLQQESGNRGAEHFTIELTEENFRRLQAEHDRQAKELFLLRKTLEEMELRIETQKQTLNARDESIKKLLEMLQSKGLPSKSLEDDNERTRRMAEAESQVSHLEVILDQKEKENIHLREELHRRSQLQPEPAKTKALQTVIEMKDTKIASLERNIRDLEDEVQMLKANGVLNTEDREEEIKQIEVYKSHSKFMKTKIDQLKQELSKKESELLALQTKLETLSNQNSDCKQHIEVLKESLTAKEQRAAILQTEVDALRLRLEEKESFLNKKTKQLQDLTEEKGTLAGEIRDMKDMLEVKERKINVLQKKIENLQEQLRDKDKQLTNLKDRVKSLQTDSSNTDTALATLEEALSEKERIIERLKEQRERDDRERLEEIESFRKENKDLKEKVNALQAELTEKESSLIDLKEHASSLASAGLKRDSKLKSLEIAIEQKKEECNKLEAQLKKAHNIEDDSRMNPEFADRLKQLDKEASYYRDECGKAQAEVDRLLEILKEVENEKNDKDKKIAELESLTLRHMKDQNKKVANLKYNQQLEKKKNAQLLEEVRRREDSMVDNSQHLQIEELMNALEKTRQELDATKARLASTQQSLAEKEAHLANLRIERRKQLEEILEMKQEALLAAISEKDANIALLELSASKKKKTQEEVMALKREKDRLVHQLKQQTQNRMKLMADNYDEDHHHYHHHHHHHHHRSPGRSQHSNHRPSPDQDDEEGIWA
With B8, the binding result was “binds”.

B9: Dihydrolipoyl dehydrogenase, mitochondrial (protein, UniProt O08749 36-509)
chain: ADQPIEADVTVIGSGPGGYVAAIKSAQLGFKTVCIEKNETLGGTCLNVGCIPSKALLNNSHYYHMAHGKDFASRGIEIPEVRLNLEKMMEQKHSAVKALTGGIAHLFKQNKVVHVNGFGKITGKNQVTATKADGSTQVIDTKNILVATGSEVTPFPGITIDEDTIVSSTGALSLKKVPEKLVVIGAGVIGVELGSVWQRLGADVTAVEFLGHVGGIGIDMEISKNFQRILQRQGFKFKLNTKVTGATKKSDGKIDVSVEAASGGKAEVITCDVLLVCIGRRPFTQNLGLEELGIELDPKGRIPVNNRFQTKIPNIYAIGDVVAGPMLAHKAEDEGIICVEGMAGGAVHIDYNCVPSVIYTHPEVAWVGKSEEQLKEEGIEFKIGKFPFAANSRAKTNADTDGMVKILGHKSTDRVLGAHILGPGAGEMVNEAALALEYGASCEDIARVCHAHPTLSEAFREANLAAAFGKPINF
As to B9, the binding result is recorded as “binds”.
